Here are results for two sequences from article PMC3870299, “Comparative genomics and functional analysis of rhamnose catabolic pathways and regulons in bacteria” (Frontiers in Microbiology, 2013).

This data set concerns the target T1, RhaR (DeoR family) (Chloroflexus aurantiacus J-10-fl) (UniProt A9WGG7).
T1 sequence (looked up, limits assumed): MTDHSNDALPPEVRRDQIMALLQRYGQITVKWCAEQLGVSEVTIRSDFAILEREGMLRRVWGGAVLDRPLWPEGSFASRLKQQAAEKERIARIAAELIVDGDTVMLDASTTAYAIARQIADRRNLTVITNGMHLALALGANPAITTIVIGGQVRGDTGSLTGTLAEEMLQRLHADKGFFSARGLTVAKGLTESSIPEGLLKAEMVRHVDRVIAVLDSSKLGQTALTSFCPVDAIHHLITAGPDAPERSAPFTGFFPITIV
Briefly: EMSA. Particulars: EMSA: 50 mM Tris-HCl pH 8.0, 150 mM NaCl, 5 mM MgCl2, 1 mM DTT (printed DDT), 0.05% NP-40, 2.5% glycerol, 1 ug poly(dI-dC), 0.2 nM DNA, 20 ul, 25 min at 50 C, recombinant protein, protein details: His6-Smt3 (SUMO) N-terminal tag, cleaved with Ulp1. A general note: In EMSA bound probe runs differently from free probe, usually more slowly.

Construct, isoform or probe ends are uncertain for at least one entry. No signal at the amounts used counts as a negative. Tags and fusion partners may be left off the protein sequences shown.

On to “GGCAGGCATCCGTAGAGCGCTCTACGATAACGATTTGGCAAAACTTTACCGTATCTTTAATCTCTGATCACATTTATTCGCTATTGTGAAAATATCCACAGTGCAATGGTTTGACACAGATACGCGGCGCAGCCTATAATCGAAGCATCCGCAATGTAAGCACCCCGCCGCATGGATTCGTAACAAGGAGGTTCGACACA (double strand) [Caur_0003 upstream 200-bp fragment]”, for which the binding result (RhaR 0.5 uM, negative control) is “no binding”.

Take “GGGGGTTCGTAAAATCTCGTAAGTACTTGACAAATCTTGAAAAGGGGG (double strand) [rhaR upstream 48-bp fragment (38-bp RhaR operator)]”: the binding result (RhaR 1 uM, 2 mM L-rhamnulose (binding abolished)) was “no binding”.
